The record followed here is paper PMC8298490, “Structure and function of an Arabidopsis thaliana sulfate transporter” (Nature Communications, 2021).

No constants are given. Whether binding was seen depends on the method and setting.

The target of the assay is AtSULTR4;1 ΔSTAS (Arabidopsis thaliana) (UniProt Q9FY46). As to the kind of experiment: SEC; purified protein on SRT-3C SEC-300 column, 20 mM HEPES, 150 mM NaCl, 5 mM BME, 0.01% LMNG; elution profile compared with wild type; both purified. In general terms: Size exclusion chromatography separates by hydrodynamic size, large species first.

B1: AtSULTR4;1 ΔSTAS (domain or fragment, UniProt Q9FY46 24-502)
chain: SSLKPPGQTRPVKVIPLQHPDTSNEARPPSIPFDDIFSGWTAKIKRMRLVDWIDTLFPCFRWIRTYRWSEYFKLDLMAGITVGIMLVPQAMSYAKLAGLPPIYGLYSSFVPVFVYAIFGSSRQLAIGPVALVSLLVSNALGGIADTNEELHIELAILLALLVGILECIMGLLRLGWLIRFISHSVISGFTSASAIVIGLSQIKYFLGYSIARSSKIVPIVESIIAGADKFQWPPFVMGSLILVILQVMKHVGKAKKELQFLRAAAPLTGIVLGTTIAKVFHPPSISLVGEIPQGLPTFSFPRSFDHAKTLLPTSALITGVAILESVGIAKALAAKNRYELDSNSELFGLGVANILGSLFSAYPATGSFSRSAVNNESEAKTGLSGLITGIIIGCSLLFLTPMFKYIPQCALAAIVISAVSGLVDYDEAIFLWRVDKRDFSLWTITSTITLFFGIEIGVLVGVGFSLAFVIHESANPHIA
B1: the binding result was “no binding”.
